PubChem BioAssay AID1259425 – University of Nebraska Medical Center | 2018

- Aim: 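Find knockdowns that reproduce the gene expression pattern seen when KSR1 is lost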 (primary screen)
- System: HCT116 human colon cancer cells
- Reagent: siRNA pool against human genes, 50 nM siRNA
- Measurement: 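After 50 nM siRNA pool, branched-DNA assay measures six marker transcripts per well, minus blank, normalised to the geometric mean of two housekeeping transcripts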
- Reading the numbers: BNIP3L mRNA: higher = more BNIP3L transcript after knockdown
In all, the deposit lists about 14,000 reagents; below is an unselected part. Not all columns of the deposit are shown. No sequences are given here. Not given: the time to read-out.

Target gene | BNIP3L mRNA, set 1
GLB1L | 0.112
SOX14 | 0.697
AMOTL2 | 0.126
VCAN | 0.136
DHH | 0.101
BMP2 | 0.1
HSDL2 | 0.198
DPM2 | 0.113
SFTPC | 0.081
ATF5 | 0.0726
TMEM60 | 0.148
DPYSL5 | 0.2
AFG3L2 | 0.0983
ABHD17A | 0.0976
METTL9 | 0.128
WNK1 | 0.0572
KIF23 | 0.106
DOK4 | 0.0756
PAAF1 | 0.125
WRN | 0.154
FHIP2B | 0.102
ZNFX1 | 0.164
BDH1 | 0.132

Continued, starting with the last 2 of the part before.
Target gene | BNIP3L mRNA, set 1
ZNFX1 | 0.164
BDH1 | 0.132
KCNJ2 | 0.0761
SRPK3 | 0.148
FAM234A | 0.318
TAS1R3 | 0.471
TSPAN31 | 0.139
TASOR | 0.137
CLASP2 | 0.08
CCR6 | 0.17
KRTAP4-9 | 0.0783
ZNF469 | 0.209
CYP3A43 | 0.15
XCL2 | 0.124
PNLIPRP2 | 0.317
AFG3L1P | 0.0731
ART4 | 0.0529
TRIM7 | 0.0598
MUC13 | 0.106
COLEC10 | 0.0788
MT-ND5 | 0.059
PSME3 | 0.105
TAF5L | 0.0903
PIK3C2G | 0.138
ICAM5 | 0.17
COX5B | 0.0832
ZNF695 | 0.0756
PDYN | 0.138
ZNF146 | 0.0806
